Data as given in PubChem BioAssay AID1224830 (NIAID, 2016)
Purpose: 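Genes whose knock-down alters the TNF-alpha reporter response to LPS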 (primary screen). System: human THP-1 monocytic leukaemia cells, TNF dual-luciferase reporter clone, PMA-differentiated to macrophage-like cells. Reagent: siRNA pool against human genes, 50 nM. Time to read-out: LPS for 4 h, given about 3 days after siRNA transfection. Treatment: bacterial LPS (TLR4 ligand), 10 ng/ml. Detection: 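Ratio of firefly to renilla light, scaled to the plate median and expressed as a robust z-score per replicate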. Reading the numbers: TNF reporter robust z-score: higher = stronger TNF reporter response to LPS. Call rule: 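Each well counts as active if its z-score is over 2.8 or under -1.5; controls are left without a call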.
In all, the deposit lists about 18,000 reagents; this is a random part of them. Over the whole deposit, about 2,900 (16%) are marked active. 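Calls are made per well; low scores hint the gene aids the LPS response, high scores that it dampens it.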 A number with no mark means an inactive call. Repeated entries: four replicate wells of each siRNA pool.

GSTA5
- TNF reporter robust z-score: -0.43

GSTA5
- TNF reporter robust z-score: 0.41

GSTA5
- TNF reporter robust z-score: 1.05

GSTA5
- TNF reporter robust z-score: 0.84

TSPYL6
- TNF reporter robust z-score: 2.58

TSPYL6
- TNF reporter robust z-score: 1.29

TSPYL6
- TNF reporter robust z-score: 0.58

TSPYL6
- TNF reporter robust z-score: -1.45

TIMCC
- TNF reporter robust z-score: 0.11

TIMCC
- TNF reporter robust z-score: -0.79

TIMCC
- TNF reporter robust z-score: -0.96

TIMCC
- TNF reporter robust z-score: -0.78

MRPL19
- TNF reporter robust z-score: -0.19

MRPL19
- TNF reporter robust z-score: -0.39

MRPL19
- TNF reporter robust z-score: -0.42

MRPL19
- TNF reporter robust z-score: -0.41

KLK13
- TNF reporter robust z-score: 2.03

KLK13
- TNF reporter robust z-score: 1.94

KLK13
- TNF reporter robust z-score: 1.05

KLK13
- TNF reporter robust z-score: 3.21 (active)

NKIRAS1
- TNF reporter robust z-score: -0.39

NKIRAS1
- TNF reporter robust z-score: -0.65

NKIRAS1
- TNF reporter robust z-score: 0.3

MLLT3
- TNF reporter robust z-score: 2.36

MLLT3
- TNF reporter robust z-score: 1.31

MLLT3
- TNF reporter robust z-score: 1.68

MLLT3
- TNF reporter robust z-score: 0.64

SENP7
- TNF reporter robust z-score: -0.57

SENP7
- TNF reporter robust z-score: -0.11

SENP7
- TNF reporter robust z-score: -0.17

DFFA
- TNF reporter robust z-score: 0.43

DFFA
- TNF reporter robust z-score: -0.33

DFFA
- TNF reporter robust z-score: -0.19

DFFA
- TNF reporter robust z-score: 0.63

Copied from above for reference:
TIMCC
- TNF reporter robust z-score: -0.78

MRPL19
- TNF reporter robust z-score: -0.19

MRPL19
- TNF reporter robust z-score: -0.39
